The other results are listed elsewhere or left out.
What was measured:
Experiment in all cases: log2 fold change, soluble protein after heating vs DMSO (PISA); higher = thermal stabilisation; K562 cells, 10 uM, 30 min; active = over 0.2 and 3.5 SD of the protein, either way, in both replicates (recomputed)
[1] = compound: NC1(c2ccc(-c3nc4ccn5c(=O)[nH]nc5c4cc3-c3ccccc3)cc2)CCC1
How it was run: (§1)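 Values are thermal stability changes relative to control samples and are taken from duplicates. They are stated as log2 fold changes. Before quantification by TMTpro 16plex LC-MS/MS with equalised channel sums, K562 cells at 2×10^6 cells/mL were treated with 10 μM compound for 30 min, heated in aliquots for 3 min across 48°C-58°C, pooled, extracted in PBS with 0.5% NP-40 at 4°C, and centrifuged at 21,000xg for 90 min to give the soluble supernatant.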

By UniProt entry, the sequences of proteins in these tests, tags left out. Where a name states a change or a piece, a line headed by the entry shows the natural chain unless it says otherwise.
UniProt Q9NUS5: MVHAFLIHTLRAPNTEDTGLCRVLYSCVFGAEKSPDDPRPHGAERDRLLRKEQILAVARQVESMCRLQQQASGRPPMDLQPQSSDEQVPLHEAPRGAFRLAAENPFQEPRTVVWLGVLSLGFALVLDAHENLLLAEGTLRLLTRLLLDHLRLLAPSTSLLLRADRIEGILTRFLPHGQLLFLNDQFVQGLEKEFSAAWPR
UniProt O14791: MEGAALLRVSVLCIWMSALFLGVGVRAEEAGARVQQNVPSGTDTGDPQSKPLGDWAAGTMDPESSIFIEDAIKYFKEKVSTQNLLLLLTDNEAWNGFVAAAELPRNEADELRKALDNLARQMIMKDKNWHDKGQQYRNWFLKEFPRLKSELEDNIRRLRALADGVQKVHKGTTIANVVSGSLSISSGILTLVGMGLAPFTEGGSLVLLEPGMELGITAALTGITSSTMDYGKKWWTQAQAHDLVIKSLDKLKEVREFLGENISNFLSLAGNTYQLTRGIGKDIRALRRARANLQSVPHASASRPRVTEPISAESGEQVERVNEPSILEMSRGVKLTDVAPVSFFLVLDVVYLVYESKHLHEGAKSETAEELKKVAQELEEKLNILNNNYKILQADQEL
UniProt O15013: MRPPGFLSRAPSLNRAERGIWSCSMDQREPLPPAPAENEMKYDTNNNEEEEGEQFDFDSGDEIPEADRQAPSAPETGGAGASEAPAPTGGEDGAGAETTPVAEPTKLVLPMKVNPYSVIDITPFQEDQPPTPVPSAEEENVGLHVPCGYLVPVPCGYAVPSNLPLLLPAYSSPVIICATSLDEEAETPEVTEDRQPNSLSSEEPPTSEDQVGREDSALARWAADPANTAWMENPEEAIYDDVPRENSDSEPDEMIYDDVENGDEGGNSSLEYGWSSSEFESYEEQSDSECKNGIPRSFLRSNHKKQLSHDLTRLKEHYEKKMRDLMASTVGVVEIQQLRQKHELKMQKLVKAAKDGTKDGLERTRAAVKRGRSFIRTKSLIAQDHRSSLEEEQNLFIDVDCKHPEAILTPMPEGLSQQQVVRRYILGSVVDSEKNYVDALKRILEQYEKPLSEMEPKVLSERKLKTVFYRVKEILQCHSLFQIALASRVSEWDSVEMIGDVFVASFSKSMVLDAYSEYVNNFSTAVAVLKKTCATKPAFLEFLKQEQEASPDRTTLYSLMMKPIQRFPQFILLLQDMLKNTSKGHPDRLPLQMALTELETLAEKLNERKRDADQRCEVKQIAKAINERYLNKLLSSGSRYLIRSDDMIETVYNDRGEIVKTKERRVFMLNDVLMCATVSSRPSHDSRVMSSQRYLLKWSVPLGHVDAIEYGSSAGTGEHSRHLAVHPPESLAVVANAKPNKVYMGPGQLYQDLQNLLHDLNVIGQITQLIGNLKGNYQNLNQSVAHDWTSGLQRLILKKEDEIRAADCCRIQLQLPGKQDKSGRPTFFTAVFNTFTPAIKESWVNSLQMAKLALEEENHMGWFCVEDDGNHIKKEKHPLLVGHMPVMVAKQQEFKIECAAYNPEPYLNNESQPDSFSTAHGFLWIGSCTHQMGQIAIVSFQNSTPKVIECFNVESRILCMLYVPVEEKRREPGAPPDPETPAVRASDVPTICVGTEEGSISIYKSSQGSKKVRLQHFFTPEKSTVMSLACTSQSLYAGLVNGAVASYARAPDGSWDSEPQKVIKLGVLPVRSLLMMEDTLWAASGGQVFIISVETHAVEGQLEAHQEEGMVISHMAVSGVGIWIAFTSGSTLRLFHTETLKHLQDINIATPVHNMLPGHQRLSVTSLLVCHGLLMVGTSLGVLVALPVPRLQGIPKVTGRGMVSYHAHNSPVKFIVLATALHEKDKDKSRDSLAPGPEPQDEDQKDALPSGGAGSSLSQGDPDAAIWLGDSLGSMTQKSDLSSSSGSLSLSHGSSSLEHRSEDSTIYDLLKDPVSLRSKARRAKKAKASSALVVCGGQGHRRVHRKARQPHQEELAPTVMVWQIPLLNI
UniProt Q6P6B7: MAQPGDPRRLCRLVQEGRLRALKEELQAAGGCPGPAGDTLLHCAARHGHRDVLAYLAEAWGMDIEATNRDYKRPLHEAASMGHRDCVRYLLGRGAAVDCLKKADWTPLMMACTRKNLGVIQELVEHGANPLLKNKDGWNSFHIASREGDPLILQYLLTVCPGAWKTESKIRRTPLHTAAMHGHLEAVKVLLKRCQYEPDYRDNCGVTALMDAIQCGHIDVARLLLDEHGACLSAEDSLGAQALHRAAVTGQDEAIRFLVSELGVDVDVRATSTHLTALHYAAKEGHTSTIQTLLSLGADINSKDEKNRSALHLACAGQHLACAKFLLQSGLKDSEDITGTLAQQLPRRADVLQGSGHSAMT
UniProt P02655: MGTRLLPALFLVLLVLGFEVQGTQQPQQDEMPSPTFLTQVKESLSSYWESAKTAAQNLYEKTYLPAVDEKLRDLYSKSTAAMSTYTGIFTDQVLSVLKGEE
UniProt Q7Z2E3: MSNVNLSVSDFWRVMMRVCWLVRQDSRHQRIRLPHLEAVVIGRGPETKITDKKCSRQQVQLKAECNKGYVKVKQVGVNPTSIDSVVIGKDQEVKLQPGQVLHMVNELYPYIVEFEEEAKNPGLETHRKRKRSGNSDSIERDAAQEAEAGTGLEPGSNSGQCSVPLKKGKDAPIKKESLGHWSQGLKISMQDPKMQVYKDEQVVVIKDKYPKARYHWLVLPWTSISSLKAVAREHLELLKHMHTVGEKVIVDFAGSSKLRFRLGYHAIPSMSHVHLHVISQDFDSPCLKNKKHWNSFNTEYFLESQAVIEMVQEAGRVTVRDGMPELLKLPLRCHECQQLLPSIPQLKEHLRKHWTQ
UniProt Q8IW19: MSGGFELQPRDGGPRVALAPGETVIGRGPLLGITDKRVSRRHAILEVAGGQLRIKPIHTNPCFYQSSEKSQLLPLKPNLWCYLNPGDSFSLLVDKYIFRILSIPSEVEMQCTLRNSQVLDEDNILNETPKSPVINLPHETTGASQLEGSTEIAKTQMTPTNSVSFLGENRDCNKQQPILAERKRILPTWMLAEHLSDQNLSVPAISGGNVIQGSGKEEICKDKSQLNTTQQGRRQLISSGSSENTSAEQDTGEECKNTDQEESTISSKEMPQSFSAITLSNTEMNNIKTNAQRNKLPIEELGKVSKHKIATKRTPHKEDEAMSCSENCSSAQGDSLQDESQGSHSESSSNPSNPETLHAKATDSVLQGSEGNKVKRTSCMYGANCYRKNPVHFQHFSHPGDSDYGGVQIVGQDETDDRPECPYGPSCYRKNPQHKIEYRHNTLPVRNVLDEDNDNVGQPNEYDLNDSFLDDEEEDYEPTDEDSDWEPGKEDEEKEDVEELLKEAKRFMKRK
UniProt Q8NB46: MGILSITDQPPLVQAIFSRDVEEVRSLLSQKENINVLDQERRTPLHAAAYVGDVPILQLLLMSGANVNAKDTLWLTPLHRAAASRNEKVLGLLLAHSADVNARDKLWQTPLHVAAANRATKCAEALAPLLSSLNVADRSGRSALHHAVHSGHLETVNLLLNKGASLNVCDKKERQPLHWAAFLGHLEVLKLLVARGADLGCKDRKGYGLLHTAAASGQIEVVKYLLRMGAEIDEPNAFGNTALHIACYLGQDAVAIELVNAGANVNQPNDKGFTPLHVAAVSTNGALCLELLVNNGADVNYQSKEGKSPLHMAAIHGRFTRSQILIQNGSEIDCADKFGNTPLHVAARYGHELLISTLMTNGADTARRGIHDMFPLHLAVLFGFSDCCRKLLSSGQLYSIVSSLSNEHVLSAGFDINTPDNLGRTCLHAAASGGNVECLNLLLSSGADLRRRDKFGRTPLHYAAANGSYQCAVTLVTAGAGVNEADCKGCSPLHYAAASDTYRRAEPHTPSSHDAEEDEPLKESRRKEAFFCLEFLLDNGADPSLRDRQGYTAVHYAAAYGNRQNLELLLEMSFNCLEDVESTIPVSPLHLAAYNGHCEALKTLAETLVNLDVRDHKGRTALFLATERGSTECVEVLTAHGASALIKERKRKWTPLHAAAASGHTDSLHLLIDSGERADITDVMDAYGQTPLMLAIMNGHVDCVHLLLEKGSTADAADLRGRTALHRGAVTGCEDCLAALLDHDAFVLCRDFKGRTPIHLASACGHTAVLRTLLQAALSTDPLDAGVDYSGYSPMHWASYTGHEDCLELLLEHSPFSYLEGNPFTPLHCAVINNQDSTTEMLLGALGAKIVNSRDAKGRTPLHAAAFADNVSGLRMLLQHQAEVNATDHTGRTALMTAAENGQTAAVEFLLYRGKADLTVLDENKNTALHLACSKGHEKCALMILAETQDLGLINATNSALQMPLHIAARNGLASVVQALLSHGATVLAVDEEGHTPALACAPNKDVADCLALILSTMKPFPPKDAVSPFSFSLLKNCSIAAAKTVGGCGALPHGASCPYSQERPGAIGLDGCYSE
UniProt Q96P48: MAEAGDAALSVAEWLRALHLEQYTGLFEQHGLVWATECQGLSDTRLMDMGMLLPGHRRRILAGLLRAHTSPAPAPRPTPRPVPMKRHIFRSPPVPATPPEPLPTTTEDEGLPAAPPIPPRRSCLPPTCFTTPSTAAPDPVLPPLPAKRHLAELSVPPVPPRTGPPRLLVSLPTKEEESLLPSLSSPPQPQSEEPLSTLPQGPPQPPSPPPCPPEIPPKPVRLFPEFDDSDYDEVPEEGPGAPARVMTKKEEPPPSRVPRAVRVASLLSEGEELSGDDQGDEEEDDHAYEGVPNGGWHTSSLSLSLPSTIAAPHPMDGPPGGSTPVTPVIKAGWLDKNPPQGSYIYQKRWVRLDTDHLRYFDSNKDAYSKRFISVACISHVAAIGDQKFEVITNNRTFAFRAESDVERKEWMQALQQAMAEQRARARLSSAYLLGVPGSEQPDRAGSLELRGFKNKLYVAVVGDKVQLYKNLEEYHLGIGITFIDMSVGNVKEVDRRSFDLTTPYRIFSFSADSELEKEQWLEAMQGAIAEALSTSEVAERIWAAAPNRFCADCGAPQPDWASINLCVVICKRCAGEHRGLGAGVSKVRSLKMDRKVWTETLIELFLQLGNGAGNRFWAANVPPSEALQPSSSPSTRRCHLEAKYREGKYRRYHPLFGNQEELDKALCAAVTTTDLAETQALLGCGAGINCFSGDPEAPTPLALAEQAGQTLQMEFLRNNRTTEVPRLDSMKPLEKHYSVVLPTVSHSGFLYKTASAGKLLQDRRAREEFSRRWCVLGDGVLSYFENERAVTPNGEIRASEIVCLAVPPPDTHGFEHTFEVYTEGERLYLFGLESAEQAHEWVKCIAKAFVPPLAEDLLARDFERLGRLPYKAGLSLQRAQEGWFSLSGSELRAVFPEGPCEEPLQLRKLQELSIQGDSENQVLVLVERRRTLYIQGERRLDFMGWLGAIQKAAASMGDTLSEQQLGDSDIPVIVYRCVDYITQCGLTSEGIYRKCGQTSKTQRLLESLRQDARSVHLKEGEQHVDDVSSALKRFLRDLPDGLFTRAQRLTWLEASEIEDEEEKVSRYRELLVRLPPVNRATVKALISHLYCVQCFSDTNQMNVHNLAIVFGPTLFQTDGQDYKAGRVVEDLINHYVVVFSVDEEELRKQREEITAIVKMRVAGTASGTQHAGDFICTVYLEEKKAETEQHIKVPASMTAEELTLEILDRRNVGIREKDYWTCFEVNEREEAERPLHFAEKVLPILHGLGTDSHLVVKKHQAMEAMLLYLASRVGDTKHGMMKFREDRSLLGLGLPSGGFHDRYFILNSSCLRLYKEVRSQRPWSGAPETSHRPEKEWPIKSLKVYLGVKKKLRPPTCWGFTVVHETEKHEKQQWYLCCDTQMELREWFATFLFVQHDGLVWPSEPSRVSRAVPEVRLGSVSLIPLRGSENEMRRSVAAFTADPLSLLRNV
UniProt P06727: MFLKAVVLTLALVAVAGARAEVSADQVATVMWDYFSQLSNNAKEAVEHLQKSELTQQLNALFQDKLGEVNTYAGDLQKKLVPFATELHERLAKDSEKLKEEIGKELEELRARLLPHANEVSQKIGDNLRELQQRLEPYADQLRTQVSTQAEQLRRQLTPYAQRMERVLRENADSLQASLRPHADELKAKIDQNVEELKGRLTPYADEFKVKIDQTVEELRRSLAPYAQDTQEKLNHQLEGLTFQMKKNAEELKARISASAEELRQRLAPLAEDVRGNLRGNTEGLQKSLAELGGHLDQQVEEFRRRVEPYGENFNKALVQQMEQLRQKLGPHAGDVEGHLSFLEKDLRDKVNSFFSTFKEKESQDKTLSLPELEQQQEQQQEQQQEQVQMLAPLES
UniProt P15514, whole entry, looked up: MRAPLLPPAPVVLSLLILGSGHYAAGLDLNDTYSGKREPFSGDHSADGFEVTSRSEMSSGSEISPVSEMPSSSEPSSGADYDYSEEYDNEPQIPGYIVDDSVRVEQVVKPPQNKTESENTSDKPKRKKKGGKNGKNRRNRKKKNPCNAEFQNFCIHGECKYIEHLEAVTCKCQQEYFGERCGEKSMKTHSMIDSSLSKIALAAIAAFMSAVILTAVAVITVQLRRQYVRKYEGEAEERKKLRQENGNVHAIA

[2] = compound: O=C(O)c1ccc2c(c1)nc(Nc1cccc(Cl)c1)c1ccncc12 [silmitasertib]
How it was run: as §1

[3] = compound: O=C1NC(=O)C(c2cnc3ccccn23)=C1c1cn2c3c(cc(F)cc13)CN(C(=O)N1CCCCC1)CC2
How it was run: as §1

[4] = compound: NC(=O)c1cnc(N[C@@H]2CCCC[C@@H]2N)nc1Nc1cccc(-n2nccn2)c1
How it was run: as §1

[5] = compound: NCC(=O)Nc1ccc(-n2nc(C(F)(F)F)cc2-c2ccc3c(ccc4ccccc43)c2)cc1
How it was run: as §1

[6] = compound: NC(=O)Nc1cc(-c2cccc(F)c2)sc1C(=O)N[C@H]1CCCNC1
How it was run: as §1

[7] = compound: Nc1ccccc1NC(=O)c1ccc(CNC(=O)OCc2cccnc2)cc1 [entinostat]
How it was run: as §1

[8] = compound: O=C(CCCCCCC(=O)Nc1ccccc1)NO [vorinostat]
How it was run: as §1

[9] = compound: O=C(CCCCCCNC(=O)c1cnc(N(c2ccccc2)c2ccccc2Cl)nc1)NO [citarinostat]
How it was run: as §1

[10] = compound: c1cc(OCCN2CCCCC2)cc(-c2n[nH]c3ccc(-c4nnc[nH]4)cc23)c1
How it was run: as §1

[11] = compound: c1cn2cc(-c3ccc4cn[nH]c4c3)nc(Nc3ccc(N4CCOCC4)cc3)c2n1 [entospletinib]
How it was run: as §1

Measured: log2 fold change

AP5S1 (UniProt Q9NUS5)
inactive: [1] -0.209 | [2] -0.017

ANXA2 (UniProt H0YMT9)
inactive: [3] -0.201

AREL1 (UniProt O15033)
inactive: [4] -0.09

API5 isoform 1 (UniProt Q9BZZ5)
inactive: [4] -0.009 | [5] -0.046 | [3] -0.018

ARFIP1 isoform 2 (UniProt P53367)
inactive: [6] 0.11 | [1] -0.147 | [7] 0.012 | [8] 0.331 | [2] -0.08 | [3] -0.062

APOL1 isoform 2 (UniProt O14791)
inactive: [9] 0.101 | [10] 0.118 | [11] -0.201

2 neighbouring records already listed:
ARFIP1 isoform 2 (UniProt P53367)
inactive: [6] 0.11 | [1] -0.147 | [7] 0.012 | [8] 0.331 | [2] -0.08 | [3] -0.062

APOL1 isoform 2 (UniProt O14791)
inactive: [9] 0.101 | [10] 0.118 | [11] -0.201

Remaining list, next part.

ARHGAP22 isoform 2 (UniProt Q7Z5H3)
inactive: [6] 0 | [5] 0.081 | [7] -0.045 | [8] 0.116 | [9] 0.17 | [10] 0.033 | [11] -0.062

ARHGAP25 isoform 4 (UniProt P42331)
inactive: [4] 0.068 | [1] -0.181 | [5] -0.127 | [8] -0.099 | [9] 0.105 | [2] 0.213 | [3] 0.021 | [10] -0.049

APH1B (UniProt Q8WW43)
inactive: [6] -0.229 | [4] -0.195 | [7] -0.059 | [8] -0.015

ARHGEF10 (UniProt O15013)
inactive: [5] -0.377

ANLN (UniProt Q9NQW6)
inactive: [6] 0.077 | [1] -0.097 | [5] 0.126 | [7] -0.101 | [8] 0.137 | [9] 0.218 | [2] 0.1 | [3] -0.116 | [10] -0.093 | [11] -0.053

ARHGAP21 (UniProt Q5T5U3)
inactive: [6] -0.097 | [1] -0.025 | [7] -0.09 | [8] -0.057 | [2] 0.176 | [3] 0.081

ANKRD16 (UniProt Q6P6B7)
inactive: [6] -0.345 | [1] 0.228 | [5] 0.007 | [7] 0.105 | [2] 0.231 | [3] 0.042

APOC2 (UniProt P02655)
inactive: [1] 0.134 | [5] -0.046 | [8] -0.067 | [2] 0.067

APTX (UniProt Q7Z2E3)
inactive: [6] -0.075 | [4] -0.023 | [7] -0.089 | [8] 0.035 | [3] 0.056

APLF (UniProt Q8IW19)
inactive: [4] -0.489

ANKRD52 (UniProt Q8NB46)
inactive: [4] -0.025 | [1] -0.111 | [5] 0.148 | [9] 0.093 | [2] 0.037 | [3] 0.116 | [10] -0.029 | [11] 0.513

ARAP1 (UniProt Q96P48)
inactive: [6] -0.08 | [1] 0.153 | [7] 0.09 | [8] 0.065 | [9] 0.032 | [2] 0.505 | [3] 0.288 | [10] -0.148 | [11] 0.099

APPBP2 (UniProt Q92624)
inactive: [8] -0.183

APBA2 (UniProt Q99767)
inactive: [3] -0.063

ANKRD36 (UniProt A6QL64)
inactive: [6] -0.342 | [1] 0.217 | [5] -0.409 | [7] -0.135 | [8] -0.229 | [9] -0.157 | [2] 0.213 | [3] -0.392 | [10] -0.026 | [11] 0.233

APOA4 (UniProt P06727)
inactive: [4] -0.161 | [1] 0.161 | [5] 0.065 | [2] 0.127 | [3] 0.134

AP4B1 (UniProt Q9Y6B7)
inactive: [6] 0.092 | [4] 0.117 | [5] 0.021 | [7] 0.081 | [8] 0.133 | [9] -0.014 | [10] -0.117 | [11] 0.007

ARID4B (UniProt Q4LE39)
inactive: [1] 0.253 | [2] 0.103

ARHGAP5 (UniProt Q13017)
inactive: [9] 0.169 | [3] -0.005 | [10] -0.213 | [11] -0.315

AP1B1 isoform 3 (UniProt Q10567)
inactive: [4] -0.033 | [1] -0.064 | [5] 0.027 | [8] 0.079 | [9] 0.128 | [2] -0.025 | [3] 0.284 | [10] 0.137 | [11] -0.071

AP5M1 (UniProt Q9H0R1)
inactive: [6] -0.105 | [1] 0.306 | [5] 0.036 | [7] -0.085 | [8] 0.188 | [9] -0.048 | [2] -0.169 | [3] 0.02 | [10] -0.03 | [11] 0.024

APP (UniProt P05067)
inactive: [6] -0.077 | [1] -0.022 | [7] 0.086 | [9] 0.197 | [2] 0.049 | [3] 0.052 | [10] -0.022 | [11] -0.001

ANKRD11 (UniProt Q6UB99)
inactive: [6] -0.306 | [1] -0.149 | [5] -0.051 | [7] -0.146 | [2] 0.205

ANGEL1 (UniProt Q9UNK9)
inactive: [5] -0.004

APC (UniProt P25054)
inactive: [4] 0.102 | [5] -0.08 | [9] -0.027 | [3] 0.127 | [10] -0.137 | [11] 0.044

ANKS1A (UniProt Q92625)
inactive: [6] -0.064 | [4] -0.074 | [7] -0.02 | [9] 0.098 | [3] -0.096 | [10] -0.329 | [11] -0.098

AREG (UniProt P15514)
inactive: [4] 0.12

ANKLE2 (UniProt Q86XL3)
inactive: [5] -0.083

AP3M2 (UniProt P53677)
inactive: [1] 0.056 | [2] -0.017
